Reference: US20230118625A1
No constants are given. Whether binding was seen depends on the method and setting. For some assays here: In cells and extracts the contact can be indirect. For some assays here: Binding calls can cover weak binding; strength is not graded here. For some assays here: Where a sequence is shown, tags or fusion partners need not be part of it. Each block holds one binder with its values, some of them ahead of it.

How the values were obtained:
tubulin (mouse) [1] = assay: confocal co-localization in CD99-KO T cells expressing the mutant, on anti-CD3-coated coverslips
tubulin (mouse) [2] = assay: co-immunoprecipitation with anti-CD99 antibody (EJ2), anti-alpha-tubulin blot; lysate of activated WT mouse T cells

- binding (tubulin (mouse) [1]): no binding
B1: CD99 TM mutant (mouse CD99 with transmembrane domain replaced by that of CD4), fluorescent protein fusion (receptor, not shown: large carriers)
chain: QKLISEEDLNSDDFNLGDALEDPNMKPTPKAPTPKKPSGGFDLEDALPGGGGGGAGEKPGNRPQPDPKPPRPHGDSGGISDSDLADAAGQGGGGAGRRGSGDEGGHGGAGGAEPEGTPQGALIVLGGVAGLLLFIGLGIFFCAYQRRRLCFREGGSAPV

- binding (tubulin (mouse) [2]): binds
B2: CD99 (endogenous, wild-type mouse CD8 T cells) (receptor, UniProt Q8VCN6 29-175, looked up)
chain: DDFNLGDALEDPNMKPTPKAPTPKKPSGGFDLEDALPGGGGGGAGEKPGNRPQPDPKPPRPHGDSGGISDSDLADAAGQGGGGAGRRGSGDEGGHGGAGGAEPEGTPQGLVPGVVAAVVAAVAGAVSSFVAYQRRRLCFREGGSAPV
